# Measured values as given in the supplement of paper PMC4862054.
# Most values lie at the level of the controls, where differences are scatter.
# Experiments:
# Test in all cases: normalised response (% of control), CellTox Green; higher = less cell death (100 = DMSO, 0 = benzethonium chloride kill control)
# Conditions in all cases: incubation time: 72 h
# HCC1937 = system: HCC1937
# Experimental: (§1)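 DSRT, 72 h incubation, CellTox Green / CellTiter-Glo readout. Signal is normalised to DMSO and benzethonium chloride controls. Value is the normalised response at the lowest tested concentration.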
# HCC1599 = system: HCC1599
# Experimental: as §1
# MFM-223 = system: MFM-223
# Experimental: as §1
# MCF-10A = system: MCF-10A
# Experimental: as §1
# CAL-85-1 = system: CAL-85-1
# Experimental: as §1
# CAL-51 = system: CAL-51
# Experimental: as §1
# HDQ-P1 = system: HDQ-P1
# Experimental: as §1
# MDA-MB-453 = system: MDA-MB-453
# Experimental: as §1
# MDA-MB-468 = system: MDA-MB-468
# Experimental: as §1
# HCC1143 = system: HCC1143
# Experimental: as §1
# CAL-148 = system: CAL-148
# Experimental: as §1
# BT-474 = system: BT-474
# Experimental: as §1
# DU-4475 = system: DU-4475
# Experimental: as §1
# MDA-MB-231 = system: MDA-MB-231
# Experimental: as §1
# MDA-MB-436 = system: MDA-MB-436
# Experimental: as §1
# CAL-120 = system: CAL-120
# Experimental: as §1
# BT-549 = system: BT-549
# Experimental: as §1
# Hs578T = system: Hs578T
# Experimental: as §1
Structure (SMILES),normalised response (HCC1937),normalised response (HCC1599),normalised response (MFM-223),normalised response (MCF-10A),normalised response (CAL-85-1),normalised response (CAL-51),normalised response (HDQ-P1),normalised response (MDA-MB-453),normalised response (MDA-MB-468),normalised response (HCC1143),normalised response (CAL-148),normalised response (BT-474),normalised response (DU-4475),normalised response (MDA-MB-231),normalised response (MDA-MB-436),normalised response (CAL-120),normalised response (BT-549),normalised response (Hs578T)
COc1cccc2c1C(=O)c1c(O)c3c(c(O)c1C2=O)C[C@@](O)(C(C)=O)C[C@@H]3O[C@H]1C[C@H](N)[C@H](O)[C@H](C)O1 [Daunorubicin] (0.1 nM),92.1%,110%,102%,109%,107%,103%,102%,111%,60.5%,114%,102%,100%,107%,108%,78.4%,98.2%,91.7%,77.9%
COc1cccc2cc(-c3nc([C@H]4CC[C@H](C(=O)O)CC4)n4ncnc(N)c34)[nH]c12 [OSI-027] (1 nM),62.8%,89.6%,102%,54.6%,102%,96.2%,92.4%,111%,76.8%,54.8%,105%,101%,98%,96.9%,77.3%,96.6%,97.3%,100%
Cc1ccc(Nc2nccc(N(C)c3ccc4c(C)n(C)nc4c3)n2)cc1S(N)(=O)=O [Pazopanib] (1 nM),104%,104%,99.5%,99.8%,103%,108%,95.4%,110%,79.7%,110%,105%,92.6%,99.3%,90.7%,84.7%,97.5%,55.8%,97%
CC(C)n1cnc2c(NCCc3ccc(O)cc3)nc(-c3csc4ccccc34)nc21 [StemRegenin 1] (1 nM),93.9%,115%,106%,106%,99.4%,103%,90.7%,108%,90%,117%,99.5%,100%,111%,120%,94.4%,105%,101%,70.5%
